Experimental data: PubChem BioAssay AID1259254 (NCATS, 2017)

- Assay: 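Genome-wide screen for genes that prevent DNA re-replication in cancer cells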 (primary screen)
- Cells: human HCT116 colorectal cancer cells
- Knock-down reagent: single siRNA against human genes
- Duration: 3 days
- Measurement: 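Nuclei stained with Hoechst and imaged; cell-cycle phase assigned by DNA content; G2 share scaled per plate, non-targeting siRNA 0%, GMNN siRNA 100%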
- Direction: G2 robust z-score and G2 cells, % of GMNN control: higher = more G2 cells, more excess DNA replication; raw share of cells in G2: higher = larger share of cells with G2 DNA content
- Active means: 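An siRNA counts as active if its G2 robust z-score lies at least 5 MADs above the screen median; here such calls match roughly 38% of GMNN control or more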
In all, the deposit lists about 59,000 reagents; this is a part drawn at random. Of all reagents, about 1,550 (2.6%) were called active. 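G2 share is only a proxy for re-replication; each gene was hit by three separate siRNAs, and active genes were retested.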 The raw values are shown without normalisation. Unmarked entries are inactive. The numbers tell different reagents against one gene apart. Not stated in the record: the amount of reagent.

| gene | reagent no. | G2 robust z-score | G2 cells, % of GMNN control | raw share of cells in G2 (%) |
| --- | --- | --- | --- | --- |
| AGPAT1 | 1 | -0.4 | 0.155 | 5.76 |
| AGPAT1 | 2 | -0.559 | -0.965 | 6.1 |
| AGPAT1 | 3 | 0.0435 | 3.27 | 4.9 |
| NTM | 1 | 3.28 | 26 | 13.8 |
| NTM | 2 | -1.03 | -4.29 | 4.01 |
| NTM | 3 | 2.41 | 19.9 | 11.6 |
| CPM | 1 | -0.456 | -0.243 | 3.82 |
| CPM | 2 | 0.176 | 4.2 | 7.02 |
| CPM | 3 | -0.072 | 2.46 | 5.78 |
| PI4K2A | 1 | 8.44 (active) | 62.3 | 25 |
| PI4K2A | 2 | 1.56 | 13.9 | 10.3 |
| PI4K2A | 3 | -1.19 | -5.42 | 1.95 |
| NTPCR | 1 | 0.412 | 5.87 | 6.06 |
| NTPCR | 2 | -0.407 | 0.107 | 3.49 |
| NTPCR | 3 | -0.815 | -2.77 | 1.57 |
| RSRC1 | 1 | -0.133 | 2.03 | 4.33 |
| RSRC1 | 2 | 0.291 | 5.02 | 6.38 |
| RSRC1 | 3 | 2.19 | 18.4 | 9.27 |
| ZNF674 | 1 | -0.0292 | 2.76 | 4.04 |
| ZNF674 | 2 | 0.547 | 6.82 | 5.53 |
| ZNF674 | 3 | -0.585 | -1.15 | 3.12 |
| RASGRP2 | 1 | 0.0913 | 3.61 | 7.9 |
| RASGRP2 | 2 | 3.53 | 27.8 | 12.8 |
| RASGRP2 | 3 | -0.0823 | 2.39 | 6.73 |

Next part (5 carried over from the part before).
| gene | reagent no. | G2 robust z-score | G2 cells, % of GMNN control | raw share of cells in G2 (%) |
| --- | --- | --- | --- | --- |
| ZNF674 | 2 | 0.547 | 6.82 | 5.53 |
| ZNF674 | 3 | -0.585 | -1.15 | 3.12 |
| RASGRP2 | 1 | 0.0913 | 3.61 | 7.9 |
| RASGRP2 | 2 | 3.53 | 27.8 | 12.8 |
| RASGRP2 | 3 | -0.0823 | 2.39 | 6.73 |
| OSTCP1 | 1 | 2.46 | 20.3 | 10.9 |
| OSTCP1 | 2 | -0.948 | -3.7 | 1.86 |
| OSTCP1 | 3 | -0.497 | -0.528 | 3.03 |
| OPTN | 1 | -0.0804 | 2.4 | 6.42 |
| OPTN | 2 | -0.644 | -1.56 | 3.29 |
| OPTN | 3 | 2.34 | 19.4 | 10.5 |
| CLMP | 1 | -0.658 | -1.66 | 3.76 |
| CLMP | 2 | -0.607 | -1.3 | 3.73 |
| CLMP | 3 | 0.0237 | 3.13 | 3.23 |
| WSB1 | 1 | 0.738 | 8.16 | 7.48 |
| WSB1 | 2 | 0.534 | 6.73 | 6.85 |
| WSB1 | 3 | 1.02 | 10.1 | 6.84 |
| SEPTIN10 | 1 | 6.51 (active) | 48.8 | 29.2 |
| SEPTIN10 | 2 | 0.836 | 8.85 | 7.94 |
| SEPTIN10 | 3 | -0.326 | 0.676 | 4.99 |
| DCDC2C | 1 | -0.182 | 1.69 | 3.76 |
| DCDC2C | 2 | -1.23 | -5.68 | 1.75 |
| DCDC2C | 3 | -1.26 | -5.93 | 1.4 |
| PSMB9 | 1 | 2.21 | 18.5 | 12 |
| PSMB9 | 2 | 0.404 | 5.81 | 6.97 |
| PSMB9 | 3 | -0.0958 | 2.29 | 4.77 |
| VEPH1 | 1 | 0.957 | 9.7 | 8.47 |
| VEPH1 | 2 | -0.295 | 0.888 | 4.69 |
| VEPH1 | 3 | 0.132 | 3.9 | 3.44 |
